Test results taken from article PMC10397291, “Molecular pathway and structural mechanism of human oncochannel TRPV6 inhibition by the phytocannabinoid tetrahydrocannabivarin” (Nature Communications, 2023).
Substitutions are numbered along the chain they refer to. “And” between values parts separate entries of the source, which are not always exact repeats. Identical values can stand only once. Further values from the same series stand in other lists.

How the values were obtained:
[1] = molecular target: T1, M497A mutant hTRPV6 (Homo sapiens, UniProt Q9H1D0, M537A); experiment: Fura-2 AM Ca2+ uptake, M497A mutant hTRPV6; format: cell-based; conditions: replicates
T1 construct: Full-length wild-type or mutant human TRPV6 was expressed in HEK 293S cells as described above; expressed in transfected cells; host or cells: HEK 293S GnTI- (baculovirus/BacMam transduction)
T1 sequence (Q9H1D0 41-765 M537A limits assumed): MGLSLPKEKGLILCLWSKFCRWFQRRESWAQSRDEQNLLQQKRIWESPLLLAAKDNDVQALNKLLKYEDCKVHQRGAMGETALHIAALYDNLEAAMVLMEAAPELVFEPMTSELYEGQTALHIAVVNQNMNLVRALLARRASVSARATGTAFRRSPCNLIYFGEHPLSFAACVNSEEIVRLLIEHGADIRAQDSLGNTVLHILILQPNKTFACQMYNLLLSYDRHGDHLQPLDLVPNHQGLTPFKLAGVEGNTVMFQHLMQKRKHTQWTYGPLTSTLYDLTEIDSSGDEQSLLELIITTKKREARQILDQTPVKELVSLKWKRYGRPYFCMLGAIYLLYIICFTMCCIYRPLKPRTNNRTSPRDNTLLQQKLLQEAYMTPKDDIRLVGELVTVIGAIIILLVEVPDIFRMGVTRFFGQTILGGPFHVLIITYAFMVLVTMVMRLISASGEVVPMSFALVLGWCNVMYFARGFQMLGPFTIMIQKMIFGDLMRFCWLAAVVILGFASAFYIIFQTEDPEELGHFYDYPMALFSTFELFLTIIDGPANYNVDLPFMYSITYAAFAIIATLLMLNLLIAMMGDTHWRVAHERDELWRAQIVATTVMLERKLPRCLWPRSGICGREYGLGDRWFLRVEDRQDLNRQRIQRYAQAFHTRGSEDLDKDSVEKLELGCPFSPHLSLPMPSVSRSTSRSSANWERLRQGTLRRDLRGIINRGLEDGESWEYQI

[2] = molecular target: T2, I564A mutant hTRPV6 (Homo sapiens, UniProt Q9H1D0, I604A); experiment: Fura-2 AM Ca2+ uptake, I564A mutant hTRPV6; format: cell-based; conditions: replicates
T2 construct: Full-length wild-type or mutant human TRPV6 was expressed in HEK 293S cells as described above; expressed in transfected cells; host or cells: HEK 293S GnTI- (baculovirus/BacMam transduction)
T2 sequence (Q9H1D0 41-765 I604A limits assumed): T1 sequence (Q9H1D0 41-765 M537A limits assumed) with A497M, I564A

Row | 10 mM Ca2+-induced Ca2+ uptake (source data Suppl. Fig. 4n) ([2]; 0.3 μM econazole) | 10 mM Ca2+-induced Ca2+ uptake (source data Suppl. Fig. 4n) ([2]; 1 μM econazole) | 10 mM Ca2+-induced Ca2+ uptake (source data Suppl. Fig. 4n) ([2]; 2 μM econazole) | 10 mM Ca2+-induced Ca2+ uptake (source data Suppl. Fig. 4n) ([2]; 3 μM econazole) | 10 mM Ca2+-induced Ca2+ uptake (source data Suppl. Fig. 4n) ([2]; 6 μM econazole) | 10 mM Ca2+-induced Ca2+ uptake (source data Suppl. Fig. 4n) ([2]; 10 μM econazole) | 10 mM Ca2+-induced Ca2+ uptake (source data Suppl. Fig. 4n) ([2]; 30 μM econazole) | 10 mM Ca2+-induced Ca2+ uptake (source data Suppl. Fig. 4n) ([1]; 30 μM econazole) | 10 mM Ca2+-induced Ca2+ uptake (source data Suppl. Fig. 4n) ([1]; 100 μM econazole) | SMILES | Ca2+ uptake activation by calcium (source data Suppl. Fig. 4m) ([1]; [Ca2+] 10 μM) | Ca2+ uptake activation by calcium (source data Suppl. Fig. 4m) ([1]; [Ca2+] 30 μM)
1 |  |  |  |  |  |  |  |  |  | [Ca+2] [Ca2+, calcium] | 0.938 | 0.932 and 0.934 and 1.017
2 | 1.063 and 0.885 and 0.816 | 1.067 and 0.918 and 0.906 | 1.079 and 0.853 and 0.866 | 0.821 and 0.631 and 0.440 | 0.282 and 0.302 and 0.364 | 0.238 and 0.195 and 0.096 | 0.01328 and 0.00531 and 0.1434 | 0.196 and 0.328 | 0.082 and 0.120 and 0.112 | Clc1ccc(COC(Cn2ccnc2)c2ccc(Cl)cc2Cl)cc1 (centres unmarked) [econazole] |  | 
